Laboratory results: doi:10.1101/2024.03.03.583230
Results are given in words; binding and its absence hold for the method and conditions named. In cells and extracts the contact can be indirect. These calls come from enrichment with a bait or labelling near it, and not all partners need be listed. Where a sequence is shown, tags or fusion partners need not be part of it.

Amino acid sequences for entries named in this document (tags omitted). Residues count along the entry.
UniProt P30530, residues 26-894: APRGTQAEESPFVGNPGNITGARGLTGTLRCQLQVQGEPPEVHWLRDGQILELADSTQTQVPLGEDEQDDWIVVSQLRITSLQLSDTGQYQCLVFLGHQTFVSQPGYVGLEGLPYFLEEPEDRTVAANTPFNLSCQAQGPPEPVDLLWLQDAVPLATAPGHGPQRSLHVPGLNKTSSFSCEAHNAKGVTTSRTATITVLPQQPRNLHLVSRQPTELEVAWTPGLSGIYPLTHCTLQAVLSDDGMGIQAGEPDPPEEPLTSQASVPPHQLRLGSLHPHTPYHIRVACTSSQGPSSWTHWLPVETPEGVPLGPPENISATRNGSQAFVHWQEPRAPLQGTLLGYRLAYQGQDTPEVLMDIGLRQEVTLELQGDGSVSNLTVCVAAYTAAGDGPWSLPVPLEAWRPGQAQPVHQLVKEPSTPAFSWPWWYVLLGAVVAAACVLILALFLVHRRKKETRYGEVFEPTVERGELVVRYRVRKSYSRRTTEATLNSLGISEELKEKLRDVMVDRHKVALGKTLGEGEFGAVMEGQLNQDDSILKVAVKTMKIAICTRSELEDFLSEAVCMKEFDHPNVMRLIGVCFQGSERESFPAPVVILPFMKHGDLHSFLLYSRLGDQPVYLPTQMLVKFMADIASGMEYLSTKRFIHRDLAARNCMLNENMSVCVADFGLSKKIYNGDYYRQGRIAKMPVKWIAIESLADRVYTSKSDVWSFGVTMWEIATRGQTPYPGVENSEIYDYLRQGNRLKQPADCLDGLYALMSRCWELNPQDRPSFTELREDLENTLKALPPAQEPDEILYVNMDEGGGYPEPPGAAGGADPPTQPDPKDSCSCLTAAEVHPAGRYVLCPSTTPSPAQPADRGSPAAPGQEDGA
UniProt P11166: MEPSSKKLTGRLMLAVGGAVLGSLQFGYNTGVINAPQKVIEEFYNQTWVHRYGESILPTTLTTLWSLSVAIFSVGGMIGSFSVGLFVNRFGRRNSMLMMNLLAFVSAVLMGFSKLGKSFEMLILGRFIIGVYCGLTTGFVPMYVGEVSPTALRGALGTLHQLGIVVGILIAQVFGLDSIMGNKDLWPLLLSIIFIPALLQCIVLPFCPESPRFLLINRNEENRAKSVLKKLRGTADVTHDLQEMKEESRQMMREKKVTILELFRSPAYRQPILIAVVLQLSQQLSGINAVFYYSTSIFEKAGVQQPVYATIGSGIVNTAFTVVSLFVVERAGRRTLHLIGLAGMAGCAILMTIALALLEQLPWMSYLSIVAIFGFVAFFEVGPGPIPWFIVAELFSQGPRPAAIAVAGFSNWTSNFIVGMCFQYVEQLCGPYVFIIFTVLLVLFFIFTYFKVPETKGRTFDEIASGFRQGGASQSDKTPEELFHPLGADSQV

B1: MCT1 (lactate transport) (protein, UniProt P53985 1-500)
chain: MPPAVGGPVGYTPPDGGWGWAVVIGAFISIGFSYAFPKSITVFFKEIEGIFHATTSEVSWISSIMLAVMYGGGPISSILVNKYGSRIVMIVGGCLSGCGLIAASFCNTVQQLYVCIGVIGGLGLAFNLNPALTMIGKYFYKRRPLANGLAMAGSPVFLCTLAPLNQVFFGIFGWRGSFLILGGLLLNCCVAGALMRPIGPKPTKAGKDKSKASLEKAGKSGVKKDLHDANTDLIGRHPKQEKRSVFQTINQFLDLTLFTHRGFLLYLSGNVIMFFGLFAPLVFLSSYGKSQHYSSEKSAFLLSILAFVDMVARPSMGLVANTKPIRPRIQYFFAASVVANGVCHMLAPLSTTYVGFCVYAGFFGFAFGWLSSVLFETLMDLVGPQRFSSAVGLVTIVECCPVLLGPPLLGRLNDMYGDYKYTYWACGVVLIISGIYLFIGMGINYRLLAKEQKANEQKKESKEEETSIDVAGKPNEVTKAAESPDQKDTDGGPKEEESPV

These molecules were tested against T1, Flag-labeled PFKP (Phosphofructokinase, Platelet Type), 3x Flag tag (human) (UniProt Q01813) (assay: affinity purification with mass spectrometry).
T1 sequence: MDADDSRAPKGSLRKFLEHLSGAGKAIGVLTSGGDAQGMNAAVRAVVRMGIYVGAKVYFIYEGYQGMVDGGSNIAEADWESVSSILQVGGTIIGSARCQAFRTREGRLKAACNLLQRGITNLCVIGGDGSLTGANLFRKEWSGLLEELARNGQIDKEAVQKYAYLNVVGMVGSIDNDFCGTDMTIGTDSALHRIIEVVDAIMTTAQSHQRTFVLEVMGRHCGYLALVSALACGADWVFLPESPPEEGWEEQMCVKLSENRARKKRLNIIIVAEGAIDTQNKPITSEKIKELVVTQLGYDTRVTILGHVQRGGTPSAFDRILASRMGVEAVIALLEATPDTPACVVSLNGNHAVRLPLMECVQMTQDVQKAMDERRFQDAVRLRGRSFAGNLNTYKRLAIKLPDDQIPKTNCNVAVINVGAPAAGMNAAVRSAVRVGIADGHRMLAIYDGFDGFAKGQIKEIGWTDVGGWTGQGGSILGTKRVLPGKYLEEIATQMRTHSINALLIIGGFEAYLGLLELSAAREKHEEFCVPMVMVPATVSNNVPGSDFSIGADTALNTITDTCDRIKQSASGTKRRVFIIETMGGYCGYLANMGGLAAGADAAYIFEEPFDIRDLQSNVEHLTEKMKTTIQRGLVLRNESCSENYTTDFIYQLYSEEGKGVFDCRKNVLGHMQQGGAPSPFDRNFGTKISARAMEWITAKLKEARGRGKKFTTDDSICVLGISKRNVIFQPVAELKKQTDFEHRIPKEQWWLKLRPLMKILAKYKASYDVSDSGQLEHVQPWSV

binding, binds:
AXL (AXL Receptor Tyrosine Kinase, Anexelekto; tyrosine-protein kinase receptor UFO) (from UniProt P30530 26-894)
GLUT1 (SLC2A1, Solute Carrier Family 2 Member 1) (from UniProt P11166 1-492)
B1
